Measurements reported in PubChem BioAssay AID504774 (Drosophila RNAi Screening Center, 2011).
The deposit covers about 23,000 reagents; below is an unselected part of those with a known target gene and a result. 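Values are quantile-normalised luminescence on an arbitrary scale; higher means more cells surviving MMS.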 Not all columns of the deposit are shown. No sequences are given here.

Aim: 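Genes required for cells to withstand methyl methanesulphonate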 (primary screen)
Cells: Drosophila Kc167 cells
Reagents: long dsRNA against Drosophila genes, about 0.25 µg dsRNA per well
Timing: about 6 days: 3 days knock-down, then 3 days with or without MMS
Challenge: methyl methanesulphonate 0.004% (w/v) for 3 days after knock-down
Measured: 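ATP-dependent luminescence as a measure of live cells in MMS-exposed wells, quantile normalised within each plate, with replicate values also given as a mean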
Scale: mean viability with MMS and viability with MMS: higher = more surviving cells after MMS

After knock-down of CG7810 (GeneID 34139) [DRSC03072], the record shows mean viability with MMS 3.71e6; viability with MMS, replicate 1 = 4.09e6.
For alpha-Man-Ia (GeneID 31957) [DRSC17642], the entry reads mean viability with MMS 3.32e6; viability with MMS, replicate 1 = 3.71e6.
For alpha-Man-Ia (GeneID 31957) [DRSC18162], the entry reads mean viability with MMS 3.47e6; viability with MMS, replicate 1 = 3.94e6.
With knock-down of alpha-Man-Ia (GeneID 31957) [DRSC18163] the results were mean viability with MMS 3.51e6; viability with MMS, replicate 1 = 4.02e6.
For alpha-Man-Ia (GeneID 31957) [DRSC18735], the entry reads mean viability with MMS 3.32e6; viability with MMS, replicate 1 = 3.80e6.
For alpha-Man-Ia (GeneID 31957) [DRSC23100] the deposit lists mean viability with MMS 3.52e6; viability with MMS, replicate 1 = 4.03e6.
Against CG15878 (GeneID 38281) [DRSC08486] the deposit lists mean viability with MMS 3.47e6; viability with MMS, replicate 1 = 4.00e6.
With knock-down of hoka (GeneID 38588) [DRSC08313] the results were mean viability with MMS 3.55e6; viability with MMS, replicate 1 = 4.20e6.
Against PolH (GeneID 40438) [DRSC11800], the entry reads mean viability with MMS 3.57e6; viability with MMS, replicate 1 = 4.02e6.
With knock-down of CG18180 (GeneID 39125) [DRSC10304] the results were mean viability with MMS 3.60e6; viability with MMS, replicate 1 = 4.09e6.
After knock-down of CG1239 (GeneID 40706) [DRSC12204] the results were mean viability with MMS 3.52e6; viability with MMS, replicate 1 = 4.03e6.
Ada3 (GeneID 32787) [DRSC20321] gave mean viability with MMS 3.50e6; viability with MMS, replicate 1 = 3.94e6.
Against Ada3 (GeneID 32787) [DRSC20322] the deposit lists mean viability with MMS 3.62e6; viability with MMS, replicate 1 = 3.99e6.
After knock-down of Or42b (GeneID 35516) [DRSC04913] the results were mean viability with MMS 3.62e6; viability with MMS, replicate 1 = 4.23e6.
CG15111 (GeneID 37200) [DRSC21467] scored mean viability with MMS 3.30e6; viability with MMS, replicate 1 = 3.80e6.
Silencing of CG11381 (GeneID 31067) [DRSC17780] came out at: mean viability with MMS 3.24e6; viability with MMS, replicate 1 = 3.75e6.
Against CG17385 (GeneID 36603) [DRSC06664], the entry reads mean viability with MMS 3.75e6; viability with MMS, replicate 1 = 3.89e6.
Depletion of CG10996 (GeneID 32345) [DRSC19363] came out at: mean viability with MMS 3.54e6; viability with MMS, replicate 1 = 4.15e6.
With knock-down of hwt (GeneID 32202) [DRSC19386], the screen gave mean viability with MMS 1.68e6; viability with MMS, replicate 1 = 3.84e6.
With knock-down of CG9853 (GeneID 40557) [DRSC12343], the screen gave mean viability with MMS 3.57e6; viability with MMS, replicate 1 = 4.06e6.
Against CG9853 (GeneID 40557) [DRSC22840] the deposit lists mean viability with MMS 3.39e6; viability with MMS, replicate 1 = 3.96e6.
Silencing of CG34348 (GeneID 32072) [DRSC19425] gave: mean viability with MMS 3.57e6; viability with MMS, replicate 1 = 4.13e6.
After knock-down of CG34348 (GeneID 32072) [DRSC19644] the results were mean viability with MMS 3.49e6; viability with MMS, replicate 1 = 3.96e6.
Knock-down of sqd (GeneID 41666) [DRSC15160] gave: mean viability with MMS 3.39e6; viability with MMS, replicate 1 = 3.57e6.
sqd (GeneID 41666) [DRSC17066] gave mean viability with MMS 1.58e6; viability with MMS, replicate 1 = 3.72e6.
With knock-down of Cht8 (GeneID 37390) [DRSC04546], the screen gave mean viability with MMS 3.34e6; viability with MMS, replicate 1 = 3.81e6.
After knock-down of CG4998 (GeneID 39808) [DRSC10466], the screen gave mean viability with MMS 3.64e6; viability with MMS, replicate 1 = 4.12e6.
Against CG4998 (GeneID 39808) [DRSC22911], the values are mean viability with MMS 3.53e6; viability with MMS, replicate 1 = 4.01e6.
Silencing of 4E-T (GeneID 43836) [DRSC17201] came out at: mean viability with MMS 3.77e6; viability with MMS, replicate 1 = 4.37e6.
Knock-down of 4E-T (GeneID 43836) [DRSC17208] gave: mean viability with MMS 3.86e6; viability with MMS, replicate 1 = 4.33e6.
MICAL-like (GeneID 39475) [DRSC09829] showed mean viability with MMS 3.54e6; viability with MMS, replicate 1 = 4.01e6.
NC2alpha (GeneID 37471) [DRSC04059] gave mean viability with MMS 3.28e6; viability with MMS, replicate 1 = 3.76e6.
CG13311 (GeneID 39008) [DRSC09982] gave mean viability with MMS 3.50e6; viability with MMS, replicate 1 = 4.06e6.
After knock-down of CG17807 (GeneID 37585) [DRSC04296], the record shows mean viability with MMS 3.64e6; viability with MMS, replicate 1 = 3.99e6.
After knock-down of CG13814 (retired record) (GeneID 40223) [DRSC10069] the results were mean viability with MMS 3.54e6; viability with MMS, replicate 1 = 4.04e6.
Silencing of Srpk79D (GeneID 40461) [DRSC11668] resulted in: mean viability with MMS 3.68e6; viability with MMS, replicate 1 = 4.15e6.
Srpk79D (GeneID 40461) [DRSC11856] scored mean viability with MMS 3.44e6; viability with MMS, replicate 1 = 3.91e6.
After knock-down of Mer (GeneID 32979) [DRSC20259], the screen gave mean viability with MMS 3.62e6; viability with MMS, replicate 1 = 4.06e6.
Depletion of CG7218 (GeneID 42165) [DRSC16216] gave: mean viability with MMS 3.48e6; viability with MMS, replicate 1 = 3.95e6.
For CG42237 (GeneID 32261) [DRSC19891], the values are mean viability with MMS 3.72e6; viability with MMS, replicate 1 = 4.27e6.
For CG33269 (GeneID 2768983) [DRSC10585] the deposit lists mean viability with MMS 3.49e6; viability with MMS, replicate 1 = 3.87e6.
tyf (GeneID 31363) [DRSC18382] scored mean viability with MMS 3.49e6; viability with MMS, replicate 1 = 3.96e6.
CG15865 (GeneID 32641) [DRSC19733] showed mean viability with MMS 3.60e6; viability with MMS, replicate 1 = 4.13e6.
Knock-down of CG34433 (GeneID 5740702) [DRSC15077] resulted in: mean viability with MMS 3.58e6; viability with MMS, replicate 1 = 3.98e6.
With knock-down of Su(dx) (GeneID 33379) [DRSC00791], the record shows mean viability with MMS 3.55e6; viability with MMS, replicate 1 = 3.93e6.

Copied from the entries so far (4 entries):
CG9853 (GeneID 40557) [DRSC12343] — mean viability with MMS: 3.57e6; viability with MMS, replicate 1: 4.06e6
CG9853 (GeneID 40557) [DRSC22840] — mean viability with MMS: 3.39e6; viability with MMS, replicate 1: 3.96e6
CG34348 (GeneID 32072) [DRSC19425] — mean viability with MMS: 3.57e6; viability with MMS, replicate 1: 4.13e6
CG34348 (GeneID 32072) [DRSC19644] — mean viability with MMS: 3.49e6; viability with MMS, replicate 1: 3.96e6
